According to PMC4890047:
Results are given in words; binding and its absence hold for the method and conditions named. Binding seen in cells or lysates may run through a third protein. Some results given as binding are weak or reduced against the parent protein; the word gives no strength.

The chains behind the UniProt entries cited, without tags or fusion partners.
UniProt Q8B6J8: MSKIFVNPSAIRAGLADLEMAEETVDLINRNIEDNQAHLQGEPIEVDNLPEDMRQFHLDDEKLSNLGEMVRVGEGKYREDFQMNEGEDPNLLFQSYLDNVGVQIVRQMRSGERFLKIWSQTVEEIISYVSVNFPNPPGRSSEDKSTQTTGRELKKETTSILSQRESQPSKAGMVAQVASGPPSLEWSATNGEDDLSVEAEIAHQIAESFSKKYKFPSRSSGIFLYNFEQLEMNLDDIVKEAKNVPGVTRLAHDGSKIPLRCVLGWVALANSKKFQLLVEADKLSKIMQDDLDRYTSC

Biological target: Flag-P (Flury) (Rabies virus strain HEP-Flury) (UniProt Q8B6J8)
Test: co-IP

B1: Cdc37 expressed from pCI-neo-Cdc37 (protein, UniProt Q61081 1-379)
chain: MVDYSVWDHIEVSDDEDETHPNIDTASLFRWRHQARVERMEQFQKEKEELDRGCRECKRKVAECQRKLKELEVAESDGQVELERLRAEAQQLRKEERSWEQKLEDMRKKEKNMPWNVDTLSKDGFSKSMVNTKPEKAEEDSEEAREQKHKTFVEKYEKQIKHFGMLHRWDDSQKYLSDNVHLVCEETANYLVIWCIDLEVEEKCALMEQVAHQTMVMQFILELAKSLKVDPRACFRQFFTKIKTADHQYMEGFKYELEAFKERVRGRAKLRIEKAMKEYEEEERKKRLGPGGLDPVEVYESLPEELQKCFDVKDVQMLQDAISKMDPTDAKYHMQRCIDSGLWVPNSKSGEAKEGEEAGPGDPLLEAVPKAGNEKDVSA
binding: binds
